## Percent effect of library compounds

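Assay of Toxoplasma gondii numbers, read through their beta-galactosidase reporter with a colour substrate. Tested at 50 µM. The record gives no direction; the compounds picked for IC50 retests had high values, so higher reads as fewer parasites. About 18,000 compounds were tested under these conditions; 0.94% (about 170) showed 50% or more at least once.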

The filed quantity is “Percent Effect” (%).
How 0% and 100% were set is not recorded. Most values in the screen are low, and negative values occur.
This is an unselected part of the compounds tested.

compound	percent effect
CN(Cc1cc(C(N)=O)cs1)Cc1nccn1C	1.937%
O=S(=O)(NCC1(c2ccccc2)CC1)N1CCOCC1	-12.24%
COCCN1CCN(Cc2ccc(C#N)o2)CC1=O	-11.68%
CN(C)CCCNC(=O)c1cccc2cccnc12	6.056%
Cc1cc(CN2CCc3ncnc(N(C)C)c3C2)on1	22.92%
CCCN1CCC(NC(=O)c2c(C)nn(C)c2C)CC1	-1.917%
CNC(=O)c1cccnc1NCC1CC1	8.295%
CCc1nc(C2(N)CCCC2)no1	-7.075%
COCCN1CCC(CN(C)C(=O)c2cccn2C)C1 (stereo not shown)	6.99%
Fc1cnc2[nH]ccc2c1	-5.897%
COc1c(Cl)cc(NC(=O)C2COCCN2)cc1Cl (stereo not shown)	1.014%
COCCNC(=O)c1cn(CC2CCCNC2)nn1 (stereo not shown)	-4.648%
CCN(Cc1cccc(F)c1)C1CCS(=O)(=O)C1 (stereo not shown)	-4.951%
COc1ccc(C(=O)Nc2cnn(C)c2)cc1	-10.32%
CN1CCN(C(=O)C2CCC2)C(c2ccccc2)C1 (stereo not shown)	-0.1634%
CCS(=O)(=O)CC(C)Nc1nccnc1C#N (stereo not shown)	-21.24%
CSc1ncccc1C(=O)N1CCCC(C)(C#N)C1 (stereo not shown)	-4.764%
CCC(C)(N)CCO (stereo not shown)	-7.553%
CS(=O)(=O)N1CCCC(N)C1 (stereo not shown)	-5.513%
Cc1cc(NC(=O)NCc2ccoc2)n(C)n1	-11.98%
N[C@H]1CN(C(=O)CCn2ccccc2=O)C[C@@H]1C1CC1	-13.78%
O[C@H]1CCN(CC(F)(F)F)C1	18.6%
CCCn1nnc(NC(=O)c2ccccc2F)n1	0.9072%
O=C(CNC(=O)OCC(F)(F)F)OCCn1cccn1	-3.031%
O=C(CCN1CCCC1)N1CCc2ccccc21	-1.076%
CC(C)c1noc(CCNC(=O)C2CC2)n1	8.037%
CCS(=O)(=O)C(C(=O)N1CCCCC1)c1ccccc1 (stereo not shown)	10.22%
COc1cn(C)c(C(=O)Nc2cccnc2)cc1=O	-6.994%
OC(Cn1nnc(-c2ccsc2)n1)CC(F)(F)F (stereo not shown)	-19.12%
CCCC(N)CNS(=O)(=O)c1ccc(C(C)=O)cc1 (stereo not shown)	13.53%
O=C(CN1CCC(O)CC1)N1CCc2sccc2C1	-10.23%
CC(C)N1CC(O)C1	5.444%
O=C(c1ccc[nH]1)N(Cc1ccco1)CC1CCCO1 (stereo not shown)	-13.83%
CCCNCc1cc(OC)c(OCC(N)=O)cc1Br	16.93%
CN1CCC(N2CCN(C)c3ccccc3C2)C1=O (stereo not shown)	-3.514%
O=C([C@@H]1C[C@H](F)CN1)N1CCc2ccccc21	-4.987%
CN(Cc1nnc[nH]1)C(=O)Cc1cccc(Br)c1	-3.44%
COCC(O)CNc1ncc(Br)cn1 (stereo not shown)	-14.88%
O=C(c1cccc(N2CCNC2=O)c1)N1CCOCC1	-16.74%
CCc1noc(CN2CCCC(O)C2)n1 (stereo not shown)	10.98%
CC(Oc1ccc(F)cc1)C(=O)N1CCCN(C)CC1 (stereo not shown)	-4.576%
COc1cccc(CNC(=O)Nc2nccs2)c1O	10.77%
CN(C)C(=O)CN1CCOC(c2ccccc2)C1 (stereo not shown)	-23.83%
Cn1ccnc(Sc2nnnn2CC2CCCO2)c1=O (stereo not shown)	-6.846%
O=C(CCn1cccn1)NCC(O)Cc1ccccc1 (stereo not shown)	9.163%
COc1cccc(CN(C)CCN(C)C)c1OC	-15.1%
NC1CCN(C(=O)c2ccccc2O)CC1	-4.421%
NC(=O)CN1CCC(COCc2ccccc2)C1 (stereo not shown)	3.993%
COC(=O)CS(=O)(=O)c1ccc(C)c(Cl)c1	-11.85%
CCNC(=O)c1csc(N2CCCC(C)C2)n1 (stereo not shown)	-59.1%
OC(C1CCNCC1)C1CCOCC1 (stereo not shown)	-79.12%
CNC1CC(=O)N(Cc2ccccc2)C1=O (stereo not shown)	-5.013%
CC(=O)N1CCc2onc(-c3ccc(F)c(F)c3)c2C1	-0.6369%
CC(C)C(NC(=O)CN1CCCC1=O)c1ccccn1 (stereo not shown)	9.866%
COC(=O)c1ccc(C(=O)Nc2ncccc2O)s1	5.93%
CN(C)CCn1ccc(N)n1	2.402%
Cc1ccc(S(=O)(=O)N2CC[C@H](O)C2)cc1N(C)C	0.9905%
COCC(COC)OC(=O)c1ccc(Cl)o1	8.775%
CC(=O)N1CCC(C(O)c2ccccc2)CC1 (stereo not shown)	-0.3926%
CC(C)C(C)(C#N)NC(=O)CN1CCCCC1 (stereo not shown)	24.96%
CCNC(=O)CSc1nccn1C1CC1	-0.9011%
Cc1ccc(C(=O)N2CCCC(CO)C2)o1 (stereo not shown)	-10.99%
CCC(O)Cc1ccncc1 (stereo not shown)	-4.43%
CS(=O)(=O)NCCC(=O)NCc1cc(F)cc(F)c1	-2.295%
Cc1ccc(CN)c(OCC2CCCO2)c1 (stereo not shown)	6.935%
Cc1cccc(OCC(O)CNc2ncccc2F)c1 (stereo not shown)	15.55%
CCC(C)NC(=O)CSc1nc2ncc(Cl)cc2[nH]1 (stereo not shown)	-0.1293%
CCS(=O)(=O)c1ccc(CNc2cc(C)ccn2)cc1	-6.02%
O=C(NCC[S+]([O-])c1ccccc1)N1CCOCC1 (stereo not shown)	-6.951%
O=C1CCN(Cc2cc(Br)cc3c2OCC3)CCN1	2.091%
Cn1c(CN2CCN(CCO)CC2)cc(=O)n(C)c1=O	-22.19%
CC1(C#N)CCN(C(=O)c2ccc(O)cc2F)CC1	1.484%

From ChEMBL document CHEMBL3988442, “University of Dundee, Small-Polar-MMV Screening Library” (2021).